Values quoted from earlier work in patent US20230271959A1, “HETEROCYCLIC COMPOUND AS BCL-2 INHIBITOR” (Beijing Innocare Pharma Tech Co., Ltd., priority 2020, published 2023).
For at least one compound, name, drawing or mass did not settle the structure.

System: chronic lymphocytic leukemia (CLL) patients
Conditions: CLL patients receiving Obatoclax; cited from earlier work

SMILES: COC1=CC(c2cc3ccccc3[nH]2)=N/C1=C\c1[nH]c(C)cc1C [Obatoclax]
- clinical response: only one partial response out of 26
